Results are given in words; binding and its absence hold for the method and conditions named. In cells and extracts the contact can be indirect. Here binding means that the protein was enriched with, or labelled near, the bait; the list need not be complete. Where a sequence is shown, tags or fusion partners need not be part of it.
Each molecule was assayed against FLS2-GFP (… SENSING2 fused to GFP) (Arabidopsis thaliana) (UniProt Q9FL28) (assay: affinity purification with mass spectrometry).

Protein sequences, listed by entry. Tags and fused reporters are not part of them. Lines headed by an entry give the natural chain unless they say otherwise; changes in a name come on top.
UniProt Q9M8T0: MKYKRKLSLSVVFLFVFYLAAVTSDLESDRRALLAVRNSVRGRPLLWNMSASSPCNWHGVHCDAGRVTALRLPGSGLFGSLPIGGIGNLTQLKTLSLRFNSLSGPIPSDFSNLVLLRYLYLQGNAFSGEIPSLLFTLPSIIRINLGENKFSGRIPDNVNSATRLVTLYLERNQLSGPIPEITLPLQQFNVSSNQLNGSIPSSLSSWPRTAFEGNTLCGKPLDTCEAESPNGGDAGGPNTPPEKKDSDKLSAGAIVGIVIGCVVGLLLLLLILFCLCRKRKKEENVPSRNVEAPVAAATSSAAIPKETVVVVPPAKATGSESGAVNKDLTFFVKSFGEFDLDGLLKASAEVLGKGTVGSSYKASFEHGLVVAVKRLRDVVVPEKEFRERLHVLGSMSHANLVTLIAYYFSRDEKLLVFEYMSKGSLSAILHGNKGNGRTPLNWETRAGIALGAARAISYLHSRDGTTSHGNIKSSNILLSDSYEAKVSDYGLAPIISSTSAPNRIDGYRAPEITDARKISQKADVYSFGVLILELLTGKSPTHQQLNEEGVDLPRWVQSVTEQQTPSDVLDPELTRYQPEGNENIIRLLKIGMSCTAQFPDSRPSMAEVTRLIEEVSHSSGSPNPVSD
UniProt Q9FIJ0: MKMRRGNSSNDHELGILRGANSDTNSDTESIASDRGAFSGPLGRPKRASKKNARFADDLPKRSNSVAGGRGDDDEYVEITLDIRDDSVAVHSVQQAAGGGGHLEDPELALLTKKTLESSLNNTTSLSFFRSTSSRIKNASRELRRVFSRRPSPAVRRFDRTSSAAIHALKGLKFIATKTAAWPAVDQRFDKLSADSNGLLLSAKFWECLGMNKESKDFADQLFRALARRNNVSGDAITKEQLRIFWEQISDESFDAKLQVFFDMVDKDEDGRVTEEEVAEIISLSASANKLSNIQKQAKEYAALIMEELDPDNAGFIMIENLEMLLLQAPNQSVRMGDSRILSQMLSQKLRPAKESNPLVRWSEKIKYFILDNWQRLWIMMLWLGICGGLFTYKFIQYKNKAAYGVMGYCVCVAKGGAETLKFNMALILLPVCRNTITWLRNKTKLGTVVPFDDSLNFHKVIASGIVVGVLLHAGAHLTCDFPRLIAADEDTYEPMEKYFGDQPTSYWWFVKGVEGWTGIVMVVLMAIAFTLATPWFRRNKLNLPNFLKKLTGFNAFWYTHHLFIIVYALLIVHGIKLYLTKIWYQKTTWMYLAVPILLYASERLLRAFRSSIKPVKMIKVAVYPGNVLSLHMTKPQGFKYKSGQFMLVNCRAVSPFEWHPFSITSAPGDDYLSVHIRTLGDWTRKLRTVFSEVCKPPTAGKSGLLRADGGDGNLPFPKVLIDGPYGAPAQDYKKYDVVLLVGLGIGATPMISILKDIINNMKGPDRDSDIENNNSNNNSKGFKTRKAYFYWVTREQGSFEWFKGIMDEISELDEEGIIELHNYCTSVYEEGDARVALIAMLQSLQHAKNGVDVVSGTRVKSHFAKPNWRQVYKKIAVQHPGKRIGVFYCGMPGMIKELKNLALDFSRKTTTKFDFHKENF
UniProt Q9M2D8: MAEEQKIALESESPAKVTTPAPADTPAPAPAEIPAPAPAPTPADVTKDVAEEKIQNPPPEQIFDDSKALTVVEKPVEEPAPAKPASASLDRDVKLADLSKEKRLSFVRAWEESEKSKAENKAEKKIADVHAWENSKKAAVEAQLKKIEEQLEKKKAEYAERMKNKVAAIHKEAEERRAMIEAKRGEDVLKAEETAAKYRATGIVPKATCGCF

Molecule	binding
QIAN SHOU KINASE1 (QSK1), endogenous (from UniProt Q9M8T0) (receptor)	binds
IMPAIRED OOMYCETE SUSCEPTIBILITY 1 (IOS1), endogenous (receptor, UniProt Q9C8I6 24-894) QDQSGFISLDCGSPRETSFREKTTNITYISDANFINTGVGGSIKQGYRTQFQQQTWNLRSFPQGIRNCYTLNLTIGDEYLIRANFLHGGYDDKPSTQFELYLGPNLWSTVTTTNETEASIFEMIHILTTDRLQICLVKTGNATPFISALELRKLMNTTYLTRQGSLQTFIRADVGATVNQGYRYGIDVFDRVWTPYNFGNWSQISTNQSVNINNDYQPPEIAMVTASVPTDPDAAMNISLVGVERTVQFYVFMHFAEIQELKSNDTREFNIMYNNKHIYGPFRPLNFTTSSVFTPTEVVADANGQYIFSLQRTGNSTLPPLLNAMEIYSVNLLPQQETDRKEVDAMMNIKSAYGVNKIDWEGDPCVPLDYKWSGVNCTYVDNETPKIISLDLSTSGLTGEILEFISDLTSLEVLDLSNNSLTGSVPEFLANMETLKLINLSGNELNGSIPATLLDKERRGSITLSIEGNTGLCSSTSCATTKKKKKNTVIAPVAASLVSVFLIGAGIVTFLILKRKKRTKLGLNPNSGTGTTPLHSRSHHGFEPPVIAKNRKLTYIDVVKITNNFERVLGRGGFGVVYYGVLNNEPVAVKMLTESTALGYKQFKAEVELLLRVHHKDLTCLVGYCEEGDKMSLIYEFMANGDLKEHLSGKRGPSILTWEGRLRIAAESAQGLEYLHNGCKPQIVHRDIKTTNILLNEKFQAKLADFGLSRSFPLGTETHVSTIVAGTPGYLDPEYYRTNWLTEKSDVFSFGVVLLELVTNQPVIDMKREKSHIAEWVGLMLSRGDINSIVDPKLQGDFDPNTIWKVVETAMTCLNPSSSRRPTMTQVVMDLKECLNMEMARNMGSRMTDSTNDSSIELSMNFTTELNPGAR	binds
SYNTAXIN OF PLANTS 71 (SYP71), endogenous (protein, UniProt Q9SF29 1-266) MTVIDILTRVDSICKKYDKYDVDKQREANISGDDAFARLYGAFETQIETALEKAELVTKEKNRAAAVAMNAEIRRTKARLSEEVPKLQRLAVKRVKGLTTEELAARNDLVLALPARIEAIPDGTAGGPKSTSAWTPSSTTSRPDIKFDSDGRFDDDYFQESNESSQFRQEYEMRKIKQEQGLDMISEGLDALKNMASDMNEELDRQVPLMDEIDTKVDRATSDLKNTNVRLKDTVNQLRSSRNFCIDIVLLCIVLGIAAYLYNVLK	binds
AUTOINHIBITED Ca2+-ATPASE 10 (ACA10), endogenous (protein, UniProt Q9SZR1 1-1069) MSGQFNNSPRGEDKDVEAGTSSFTEYEDSPFDIASTKNAPVERLRRWRQAALVLNASRRFRYTLDLKREEDKKQMLRKMRAHAQAIRAAHLFKAAASRVTGIASPLPTPGGGDFGIGQEQIVSISRDQNIGALQELGGVRGLSDLLKTNLEKGIHGDDDDILKRKSAFGSNTYPQKKGRSFWRFVWEASQDLTLIILIVAAVASLALGIKTEGIEKGWYDGISIAFAVLLVIVVTATSDYRQSLQFQNLNEEKRNIRLEVTRDGRRVEISIYDIVVGDVIPLNIGDQVPADGVLVAGHSLAVDESSMTGESKIVQKNSTKHPFLMSGCKVADGNGTMLVTGVGVNTEWGLLMASVSEDNGGETPLQVRLNGVATFIGIVGLTVAGVVLFVLVVRYFTGHTKNEQGGPQFIGGKTKFEHVLDDLVEIFTVAVTIVVVAVPEGLPLAVTLTLAYSMRKMMADKALVRRLSACETMGSATTICSDKTGTLTLNEMTVVECYAGLQKMDSPDSSSKLPSAFTSILVEGIAHNTTGSVFRSESGEIQVSGSPTERAILNWAIKLGMDFDALKSESSAVQFFPFNSEKKRGGVAVKSPDSSVHIHWKGAAEIVLGSCTHYMDESESFVDMSEDKMGGLKDAIDDMAARSLRCVAIAFRTFEADKIPTDEEQLSRWELPEDDLILLAIVGIKDPCRPGVKNSVLLCQQAGVKVRMVTGDNIQTAKAIALECGILASDSDASEPNLIEGKVFRSYSEEERDRICEEISVMGRSSPNDKLLLVQSLKRRGHVVAVTGDGTNDAPALHEADIGLAMGIQGTEVAKEKSDIIILDDNFESVVKVVRWGRSVYANIQKFIQFQLTVNVAALVINVVAAISAGEVPLTAVQLLWVNLIMDTLGALALATEPPTDHLMDRAPVGRREPLITNIMWRNLFIQAMYQVTVLLILNFRGISILHLKSKPNAERVKNTVIFNAFVICQVFNEFNARKPDEINIFRGVLRNHLFVGIISITIVLQVVIVEFLGTFASTTKLDWEMWLVCIGIGSISWPLAVIGKLIPVPETPVSQYFRINRWRRNSSG	binds

The remaining lines, values ahead:

binding	Molecule
binds	RESPIRATORY BURST OXIDASE HOMOLOG D (RBOHD), endogenous (from UniProt Q9FIJ0 1-921) (enzyme)
binds	REMORIN 1.2 (REM1.2), endogenous (from UniProt Q9M2D8)

— paper doi:10.1101/2023.12.13.571443
